Measured values as given in patent US20250034079A1, “PROCESS FOR RECOVERING AMINOBENZOIC ACID FROM AN AQUEOUS MOTHER LIQUOR” (Covestro Deutschland AG, priority 2021, published 2025).

Tests used:
[1] = Distribution of organic secondary components into the organic extract phase (HPLC); type: physicochemical; conditions: proportion by mass in organic extract phase, 30° C., phase ratio 0.5; for m(SC)ORG/m(SC)TOT Polar secondary components: impurities eluting earlier than oAB; for m(SC)ORG/m(SC)TOT Nonpolar secondary components: impurities eluting later than oAB
[2] = Acidic re-extraction of ortho-aminobenzoic acid from a solution in 1-decanol; type: physicochemical; conditions: 1.5% by mass in 1-decanol, phase ratio 1.0, 30° C.

Compound | m(SC)ORG/m(SC)TOT Polar secondary components [1] | m(SC)ORG/m(SC)TOT Nonpolar secondary components [1] | ortho-aminobenzoic acid recovered ([2]; hydrochloric acid 1.0 mol/L, one-stage extraction (example 12a)) [%] | ortho-aminobenzoic acid recovered ([2]; hydrochloric acid 1.0 mol/L, three-stage extraction (example 12c)) [%] | ortho-aminobenzoic acid recovered ([2]; hydrochloric acid 1.0 mol/L, two-stage extraction (example 12b)) [%] | ortho-aminobenzoic acid recovered ([2]; sulfuric acid 1.0 mol/L, one-stage extraction (example 13a)) [%] | ortho-aminobenzoic acid recovered ([2]; sulfuric acid 1.0 mol/L, three-stage extraction (example 13c)) [%] | ortho-aminobenzoic acid recovered ([2]; sulfuric acid 1.0 mol/L, two-stage extraction (example 13b)) [%]
CCCCCCCCCCO [1-Decanol] | 0.09 | 0.65 |  |  |  |  |  | 
CCC(C)=O [2-Butanone] | 0.24 | 0.73 |  |  |  |  |  | 
CCCCOC(C)=O [Butyl acetate] | 0.08 | 0.62 |  |  |  |  |  | 
Cc1ccccc1 [Toluene] | 0.00 | 0.29 |  |  |  |  |  | 
Nc1ccccc1C(=O)O [ortho-aminobenzoic acid] |  |  | 87.4 | 99.5 | 98.1 | 90.3 | 99.3 | 99.3
